{"sequences": {"note": "Sequences of proteins named here, by UniProt entry; tags and fusion partners are left off. A change or cut given only in a name is not applied to a line headed by its entry. Residues count along the entry.", "UniProt P35241, residues 1-318": "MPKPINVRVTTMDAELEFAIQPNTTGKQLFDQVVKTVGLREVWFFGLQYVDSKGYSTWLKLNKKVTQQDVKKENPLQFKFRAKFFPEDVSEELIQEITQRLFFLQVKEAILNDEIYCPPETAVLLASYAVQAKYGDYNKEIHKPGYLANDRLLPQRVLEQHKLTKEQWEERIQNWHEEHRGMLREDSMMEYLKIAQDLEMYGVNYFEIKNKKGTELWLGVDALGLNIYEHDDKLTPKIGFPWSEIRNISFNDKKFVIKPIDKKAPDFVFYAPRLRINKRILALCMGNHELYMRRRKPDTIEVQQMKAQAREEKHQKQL", "UniProt O95342": "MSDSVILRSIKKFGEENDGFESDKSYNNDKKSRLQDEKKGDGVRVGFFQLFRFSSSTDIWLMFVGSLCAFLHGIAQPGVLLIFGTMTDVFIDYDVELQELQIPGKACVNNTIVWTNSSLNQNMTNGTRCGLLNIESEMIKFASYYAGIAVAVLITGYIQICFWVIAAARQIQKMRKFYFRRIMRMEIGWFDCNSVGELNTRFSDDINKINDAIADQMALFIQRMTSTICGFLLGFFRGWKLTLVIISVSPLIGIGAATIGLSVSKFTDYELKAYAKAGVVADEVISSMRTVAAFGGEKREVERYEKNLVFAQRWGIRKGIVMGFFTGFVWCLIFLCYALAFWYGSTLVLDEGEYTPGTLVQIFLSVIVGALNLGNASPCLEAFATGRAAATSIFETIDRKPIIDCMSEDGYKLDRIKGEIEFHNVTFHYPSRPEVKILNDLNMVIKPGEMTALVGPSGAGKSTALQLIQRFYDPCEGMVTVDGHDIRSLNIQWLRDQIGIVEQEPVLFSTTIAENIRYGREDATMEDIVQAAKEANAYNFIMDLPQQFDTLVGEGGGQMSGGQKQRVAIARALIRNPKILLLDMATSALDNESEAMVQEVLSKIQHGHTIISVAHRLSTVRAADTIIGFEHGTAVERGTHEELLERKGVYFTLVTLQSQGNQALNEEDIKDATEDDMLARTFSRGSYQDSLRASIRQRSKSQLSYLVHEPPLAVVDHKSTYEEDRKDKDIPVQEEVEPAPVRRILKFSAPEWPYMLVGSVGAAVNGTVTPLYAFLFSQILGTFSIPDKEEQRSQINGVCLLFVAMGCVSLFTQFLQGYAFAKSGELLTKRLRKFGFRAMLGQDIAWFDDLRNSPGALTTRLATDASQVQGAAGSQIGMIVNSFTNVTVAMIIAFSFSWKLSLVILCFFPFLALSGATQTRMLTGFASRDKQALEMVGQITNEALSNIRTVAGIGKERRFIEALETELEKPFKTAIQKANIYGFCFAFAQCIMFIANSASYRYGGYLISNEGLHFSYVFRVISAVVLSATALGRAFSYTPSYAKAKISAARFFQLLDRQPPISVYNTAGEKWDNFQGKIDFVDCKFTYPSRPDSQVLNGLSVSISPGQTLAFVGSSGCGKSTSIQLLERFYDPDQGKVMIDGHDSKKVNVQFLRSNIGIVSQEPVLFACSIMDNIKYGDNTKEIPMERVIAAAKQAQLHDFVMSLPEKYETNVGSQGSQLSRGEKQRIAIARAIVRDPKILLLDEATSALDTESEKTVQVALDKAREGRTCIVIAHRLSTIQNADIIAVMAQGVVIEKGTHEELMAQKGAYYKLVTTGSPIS"}, "source": "paper PMC4966956", "about": "“Analysis of the Bile Salt Export Pump (ABCB11) Interactome Employing Complementary Approaches” (PLoS ONE, 2016)", "target": "radixin_(1-318), Strep-tagged, purified (human) (UniProt P35241)", "assay": "pull-down; Strep-tagged partner immobilised on Strep-Tactin resin, detergent-solubilised purified BSEP added for 30 min at 4°C; 50 mM sodium phosphate pH 7, 150 mM NaCl, 20% glycerol, 0.022% DDM; immunoblot against BSEP and Strep-tag II; both purified", "note": "These are yes or no findings as the source states them, for the method shown. A result given as binding can be weak or reduced; the word gives no strength.", "data": [{"substance": "tag-less BSEP (from UniProt O95342)", "values": [{"measurement": "binding", "value": "binds"}]}]}
